Experimental data: PMC5171658
These are yes or no findings as the source states them, for the method shown. Sequences can lack the tags named with a protein.

Each substance was assayed against T1, PHYTOCHROME … FACTOR4 (PIF4), yeast two-hybrid fusion (Arabidopsis thaliana) (UniProt Q8W2F3) (assay: two-hybrid; yeast AH109 co-transformed with pGADT7 and pGBKT7 constructs; growth on synthetic dropout medium without histidine with 1 or 5 mM 3-amino-1,2,4-triazole).
T1 sequence: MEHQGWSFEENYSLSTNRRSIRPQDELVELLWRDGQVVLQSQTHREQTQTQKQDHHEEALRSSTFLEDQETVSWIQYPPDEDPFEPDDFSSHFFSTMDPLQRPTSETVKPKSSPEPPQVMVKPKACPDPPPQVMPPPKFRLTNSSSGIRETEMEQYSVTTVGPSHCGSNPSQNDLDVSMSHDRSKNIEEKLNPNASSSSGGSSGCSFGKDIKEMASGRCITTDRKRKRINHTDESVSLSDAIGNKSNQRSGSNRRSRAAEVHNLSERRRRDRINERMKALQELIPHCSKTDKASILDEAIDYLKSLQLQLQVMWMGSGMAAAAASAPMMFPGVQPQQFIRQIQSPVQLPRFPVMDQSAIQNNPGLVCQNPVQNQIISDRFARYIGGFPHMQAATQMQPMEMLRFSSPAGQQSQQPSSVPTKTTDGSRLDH
“PRR3, yeast two-hybrid fusion (Arabidopsis thaliana)” was tested, and the binding was “no binding”. For “PRR7, yeast two-hybrid fusion (Arabidopsis thaliana)”, the binding was “no binding”. For “PRR9, yeast two-hybrid fusion (Arabidopsis thaliana)”, the binding was “no binding”.
